# Test results published in the supplement of paper PMC7666118.
# Sequences of proteins named here, by UniProt entry; tags and fusion partners are left off. A change or cut given only in a name is not applied to a line headed by its entry.
# UniProt Q8WV74: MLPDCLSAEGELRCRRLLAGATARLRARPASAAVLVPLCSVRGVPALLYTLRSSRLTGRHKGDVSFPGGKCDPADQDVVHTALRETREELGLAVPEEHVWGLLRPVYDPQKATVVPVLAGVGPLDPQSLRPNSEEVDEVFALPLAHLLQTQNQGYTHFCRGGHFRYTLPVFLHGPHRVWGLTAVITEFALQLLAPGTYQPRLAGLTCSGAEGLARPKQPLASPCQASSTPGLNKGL
# UniProt Q96P11: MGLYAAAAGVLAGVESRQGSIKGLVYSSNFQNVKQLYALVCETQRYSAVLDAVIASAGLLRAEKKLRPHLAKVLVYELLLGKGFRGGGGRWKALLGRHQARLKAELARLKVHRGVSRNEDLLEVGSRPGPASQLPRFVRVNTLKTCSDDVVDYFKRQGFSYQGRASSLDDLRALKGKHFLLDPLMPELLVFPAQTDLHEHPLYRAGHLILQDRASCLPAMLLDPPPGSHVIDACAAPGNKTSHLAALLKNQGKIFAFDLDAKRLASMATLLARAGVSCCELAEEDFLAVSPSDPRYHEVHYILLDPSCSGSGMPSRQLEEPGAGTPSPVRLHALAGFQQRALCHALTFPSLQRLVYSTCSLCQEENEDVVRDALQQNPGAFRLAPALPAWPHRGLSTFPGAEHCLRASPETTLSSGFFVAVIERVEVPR
# UniProt Q9GZZ1: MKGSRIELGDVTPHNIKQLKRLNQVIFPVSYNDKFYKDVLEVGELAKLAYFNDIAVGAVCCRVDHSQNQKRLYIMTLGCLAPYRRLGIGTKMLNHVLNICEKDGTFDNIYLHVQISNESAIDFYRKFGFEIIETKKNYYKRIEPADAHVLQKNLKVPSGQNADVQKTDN
# UniProt Q9UK23: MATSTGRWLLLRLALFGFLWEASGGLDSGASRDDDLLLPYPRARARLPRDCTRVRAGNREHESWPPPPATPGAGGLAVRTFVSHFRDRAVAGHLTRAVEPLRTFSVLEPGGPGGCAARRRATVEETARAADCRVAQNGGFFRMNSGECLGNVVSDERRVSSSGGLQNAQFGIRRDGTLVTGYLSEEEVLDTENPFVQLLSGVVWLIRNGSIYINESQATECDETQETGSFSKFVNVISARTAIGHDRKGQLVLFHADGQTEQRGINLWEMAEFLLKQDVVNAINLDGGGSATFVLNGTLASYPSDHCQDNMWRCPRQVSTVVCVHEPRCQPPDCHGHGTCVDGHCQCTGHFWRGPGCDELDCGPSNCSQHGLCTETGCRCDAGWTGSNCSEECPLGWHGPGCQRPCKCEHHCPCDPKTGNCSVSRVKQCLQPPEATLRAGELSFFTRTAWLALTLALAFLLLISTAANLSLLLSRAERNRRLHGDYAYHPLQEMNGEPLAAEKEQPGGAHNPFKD
# UniProt Q9NR45: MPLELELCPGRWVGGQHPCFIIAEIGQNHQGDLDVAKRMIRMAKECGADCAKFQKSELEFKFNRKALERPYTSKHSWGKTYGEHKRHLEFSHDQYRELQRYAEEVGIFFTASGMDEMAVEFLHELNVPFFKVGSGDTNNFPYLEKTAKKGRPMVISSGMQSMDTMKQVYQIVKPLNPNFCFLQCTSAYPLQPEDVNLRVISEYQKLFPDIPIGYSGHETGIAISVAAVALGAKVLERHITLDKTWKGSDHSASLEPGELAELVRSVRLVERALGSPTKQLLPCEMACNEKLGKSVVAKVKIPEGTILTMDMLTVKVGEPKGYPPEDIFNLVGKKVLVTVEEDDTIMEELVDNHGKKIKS
# UniProt Q00653: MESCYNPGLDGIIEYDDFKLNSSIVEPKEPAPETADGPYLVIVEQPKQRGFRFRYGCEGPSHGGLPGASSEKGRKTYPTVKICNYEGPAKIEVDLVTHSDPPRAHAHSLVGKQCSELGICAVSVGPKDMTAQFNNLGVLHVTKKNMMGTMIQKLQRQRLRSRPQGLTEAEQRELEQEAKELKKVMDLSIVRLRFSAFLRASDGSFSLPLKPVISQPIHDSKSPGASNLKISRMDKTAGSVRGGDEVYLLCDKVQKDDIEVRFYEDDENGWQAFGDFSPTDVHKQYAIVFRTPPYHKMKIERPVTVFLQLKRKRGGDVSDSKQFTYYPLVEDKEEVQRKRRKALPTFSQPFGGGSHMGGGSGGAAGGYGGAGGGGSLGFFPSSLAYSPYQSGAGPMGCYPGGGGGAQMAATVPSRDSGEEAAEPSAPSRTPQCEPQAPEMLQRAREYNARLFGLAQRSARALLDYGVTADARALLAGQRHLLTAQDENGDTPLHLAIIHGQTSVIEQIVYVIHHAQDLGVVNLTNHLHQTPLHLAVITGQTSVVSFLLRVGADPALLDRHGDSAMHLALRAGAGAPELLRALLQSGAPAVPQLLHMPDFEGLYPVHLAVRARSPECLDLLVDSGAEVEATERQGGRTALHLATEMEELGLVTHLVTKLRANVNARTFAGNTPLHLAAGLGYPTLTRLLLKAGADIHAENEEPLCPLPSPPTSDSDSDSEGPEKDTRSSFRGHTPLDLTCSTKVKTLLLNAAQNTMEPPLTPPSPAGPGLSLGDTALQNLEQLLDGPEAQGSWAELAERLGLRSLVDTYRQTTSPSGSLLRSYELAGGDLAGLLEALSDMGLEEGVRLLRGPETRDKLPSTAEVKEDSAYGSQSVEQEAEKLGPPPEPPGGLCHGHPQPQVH
# UniProt P17568, whole entry: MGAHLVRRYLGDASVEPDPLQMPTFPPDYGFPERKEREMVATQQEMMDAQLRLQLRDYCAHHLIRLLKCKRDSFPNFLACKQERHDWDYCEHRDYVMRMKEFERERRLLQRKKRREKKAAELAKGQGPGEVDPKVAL
# UniProt P30414: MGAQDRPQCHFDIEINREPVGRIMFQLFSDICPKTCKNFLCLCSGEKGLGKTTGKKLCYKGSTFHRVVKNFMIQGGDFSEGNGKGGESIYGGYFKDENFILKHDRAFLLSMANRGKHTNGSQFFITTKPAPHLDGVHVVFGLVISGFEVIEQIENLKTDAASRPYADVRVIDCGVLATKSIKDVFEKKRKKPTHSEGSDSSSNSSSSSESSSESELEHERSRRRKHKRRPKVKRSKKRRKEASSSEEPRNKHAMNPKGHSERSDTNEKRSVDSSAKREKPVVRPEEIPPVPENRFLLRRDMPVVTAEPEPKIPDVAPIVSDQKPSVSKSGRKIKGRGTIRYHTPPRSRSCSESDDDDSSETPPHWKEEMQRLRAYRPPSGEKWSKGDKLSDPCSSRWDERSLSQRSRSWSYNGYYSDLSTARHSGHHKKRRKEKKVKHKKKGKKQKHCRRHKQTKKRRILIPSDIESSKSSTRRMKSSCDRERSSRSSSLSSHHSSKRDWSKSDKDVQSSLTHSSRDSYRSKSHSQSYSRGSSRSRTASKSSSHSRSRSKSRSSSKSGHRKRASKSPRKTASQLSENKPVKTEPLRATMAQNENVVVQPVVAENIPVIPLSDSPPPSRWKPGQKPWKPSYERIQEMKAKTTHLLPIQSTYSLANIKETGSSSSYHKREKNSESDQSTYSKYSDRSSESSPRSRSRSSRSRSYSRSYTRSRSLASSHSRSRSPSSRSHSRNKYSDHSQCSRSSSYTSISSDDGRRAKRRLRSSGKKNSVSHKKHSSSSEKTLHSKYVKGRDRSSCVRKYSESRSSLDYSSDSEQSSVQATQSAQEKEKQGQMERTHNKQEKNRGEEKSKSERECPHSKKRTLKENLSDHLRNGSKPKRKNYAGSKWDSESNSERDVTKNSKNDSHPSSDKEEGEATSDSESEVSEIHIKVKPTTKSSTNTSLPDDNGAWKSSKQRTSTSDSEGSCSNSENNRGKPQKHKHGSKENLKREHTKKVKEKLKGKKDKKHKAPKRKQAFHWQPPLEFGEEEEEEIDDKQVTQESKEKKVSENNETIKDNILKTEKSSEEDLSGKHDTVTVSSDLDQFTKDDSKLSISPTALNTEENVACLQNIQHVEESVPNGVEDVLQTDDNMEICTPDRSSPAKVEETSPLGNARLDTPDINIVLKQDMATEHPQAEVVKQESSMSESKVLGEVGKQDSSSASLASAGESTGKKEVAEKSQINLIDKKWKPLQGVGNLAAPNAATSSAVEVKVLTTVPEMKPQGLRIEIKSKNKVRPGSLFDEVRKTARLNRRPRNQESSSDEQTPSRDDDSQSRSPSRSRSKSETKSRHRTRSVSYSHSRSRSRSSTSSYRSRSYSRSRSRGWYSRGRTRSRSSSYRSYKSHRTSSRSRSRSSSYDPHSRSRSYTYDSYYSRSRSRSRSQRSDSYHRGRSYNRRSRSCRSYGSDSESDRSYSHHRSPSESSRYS
# UniProt P61916: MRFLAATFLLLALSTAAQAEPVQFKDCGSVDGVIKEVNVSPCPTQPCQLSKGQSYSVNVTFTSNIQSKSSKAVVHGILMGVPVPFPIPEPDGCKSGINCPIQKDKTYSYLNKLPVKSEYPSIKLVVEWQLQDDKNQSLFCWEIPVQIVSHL
# UniProt P06748, whole entry: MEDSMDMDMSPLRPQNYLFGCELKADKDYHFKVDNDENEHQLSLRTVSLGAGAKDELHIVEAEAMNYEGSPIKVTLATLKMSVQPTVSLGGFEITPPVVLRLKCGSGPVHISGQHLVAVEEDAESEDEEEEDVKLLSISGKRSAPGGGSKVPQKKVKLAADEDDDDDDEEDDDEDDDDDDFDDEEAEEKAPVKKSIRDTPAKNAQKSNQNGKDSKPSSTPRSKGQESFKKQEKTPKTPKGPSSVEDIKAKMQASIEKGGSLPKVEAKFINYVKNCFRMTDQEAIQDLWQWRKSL
# UniProt Q86Y39, whole entry: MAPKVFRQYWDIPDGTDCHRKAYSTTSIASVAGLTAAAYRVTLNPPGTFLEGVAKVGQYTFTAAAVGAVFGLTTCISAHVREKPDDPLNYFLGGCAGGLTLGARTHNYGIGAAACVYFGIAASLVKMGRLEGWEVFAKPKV
# UniProt P50583: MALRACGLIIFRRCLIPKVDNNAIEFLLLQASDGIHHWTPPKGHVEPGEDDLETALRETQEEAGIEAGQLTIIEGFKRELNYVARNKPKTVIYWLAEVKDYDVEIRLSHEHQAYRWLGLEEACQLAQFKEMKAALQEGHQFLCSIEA
# UniProt Q9NPP4, whole entry: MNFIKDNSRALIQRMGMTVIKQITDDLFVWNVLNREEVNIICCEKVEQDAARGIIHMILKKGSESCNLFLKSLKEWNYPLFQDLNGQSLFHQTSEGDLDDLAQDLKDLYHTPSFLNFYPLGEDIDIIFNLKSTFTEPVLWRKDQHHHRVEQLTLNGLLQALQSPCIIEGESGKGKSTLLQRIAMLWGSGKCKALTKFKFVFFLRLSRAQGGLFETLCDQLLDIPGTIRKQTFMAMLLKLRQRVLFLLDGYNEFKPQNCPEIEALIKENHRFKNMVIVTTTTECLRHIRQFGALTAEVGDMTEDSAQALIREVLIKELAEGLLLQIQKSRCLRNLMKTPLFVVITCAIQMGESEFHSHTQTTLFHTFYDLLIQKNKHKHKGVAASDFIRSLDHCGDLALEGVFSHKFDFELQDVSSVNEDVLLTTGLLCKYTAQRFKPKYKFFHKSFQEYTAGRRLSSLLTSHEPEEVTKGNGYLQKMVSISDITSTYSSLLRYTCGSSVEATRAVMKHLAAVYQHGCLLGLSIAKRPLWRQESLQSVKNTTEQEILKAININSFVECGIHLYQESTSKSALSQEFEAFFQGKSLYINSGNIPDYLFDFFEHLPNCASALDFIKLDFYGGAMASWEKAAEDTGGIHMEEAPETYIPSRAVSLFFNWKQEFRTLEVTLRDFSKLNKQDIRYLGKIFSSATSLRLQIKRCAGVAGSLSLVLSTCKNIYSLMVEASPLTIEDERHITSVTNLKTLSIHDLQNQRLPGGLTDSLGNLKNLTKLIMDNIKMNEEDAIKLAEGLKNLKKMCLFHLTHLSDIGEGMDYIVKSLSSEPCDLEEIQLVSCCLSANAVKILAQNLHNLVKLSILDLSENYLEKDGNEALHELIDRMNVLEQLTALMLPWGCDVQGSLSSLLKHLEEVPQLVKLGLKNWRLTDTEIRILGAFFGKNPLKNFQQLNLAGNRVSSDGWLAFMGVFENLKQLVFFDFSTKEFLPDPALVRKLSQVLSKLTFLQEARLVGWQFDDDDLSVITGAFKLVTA
# UniProt Q8NCF5: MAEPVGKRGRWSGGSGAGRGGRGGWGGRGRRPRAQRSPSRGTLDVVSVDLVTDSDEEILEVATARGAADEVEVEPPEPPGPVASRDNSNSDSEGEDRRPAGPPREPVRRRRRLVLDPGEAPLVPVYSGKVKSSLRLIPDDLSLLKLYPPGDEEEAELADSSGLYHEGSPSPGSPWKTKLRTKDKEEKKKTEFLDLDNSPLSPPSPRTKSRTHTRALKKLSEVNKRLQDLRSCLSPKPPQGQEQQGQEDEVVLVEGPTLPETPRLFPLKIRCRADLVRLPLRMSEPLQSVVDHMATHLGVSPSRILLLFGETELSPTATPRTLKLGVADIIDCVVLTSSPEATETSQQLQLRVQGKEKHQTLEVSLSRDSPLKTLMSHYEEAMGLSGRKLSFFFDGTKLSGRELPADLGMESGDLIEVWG
# UniProt Q96DE0: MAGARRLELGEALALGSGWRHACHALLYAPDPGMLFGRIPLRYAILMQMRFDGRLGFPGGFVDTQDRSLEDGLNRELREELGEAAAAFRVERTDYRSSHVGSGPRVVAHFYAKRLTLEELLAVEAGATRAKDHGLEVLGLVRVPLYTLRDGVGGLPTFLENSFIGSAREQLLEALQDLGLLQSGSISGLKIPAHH
# The other results are listed elsewhere or left out.
# Compound: COc1ccc(Cn2ccc3cc(C)c(C(=O)NO)cc32)cc1
# Test: dose-dependent thermal stabilisation call (2D-TPP, DLPTP, 10% FDR) (binary (1 = stabilised)); higher = stabilised by the compound
# Conditions: system: HL-60 intact cells; concentration range 0.04-10 µM
# Procedure: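 2D thermal proteome profiling in intact HL-60 cells treated with BRD-3811 (0, 0.04, 0.29, 2, 10 uM) for 90 min at 37 C, then heated 3 min at one of 12 temperatures (42-63.9 C). Soluble protein was quantified by TMT10 MS. The value is the DLPTP call of the paper: dose-dependent thermal stabilisation over all temperatures at 10% FDR (F-test of a dose-response against a flat model); one experiment, one call per tested protein.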
row,Target,dose-dependent thermal stabilisation call
1,ND5 (UniProt P03915),inactive: 0
2,NCK1 (UniProt P16333),inactive: 0
3,NUDT8 (UniProt Q8WV74),inactive: 0
4,NDUFA5 (UniProt Q16718),inactive: 0
5,NGDN (UniProt Q8NEJ9),inactive: 0
6,NDUFS6 (UniProt O75380),inactive: 0
7,NSUN5 (UniProt Q96P11),inactive: 0
8,NT5DC1 (UniProt Q5TFE4),active: 1
9,NEK1 (UniProt Q96PY6),inactive: 0
10,NDFIP2 (UniProt Q9NV92),inactive: 0
11,NECAP1 (UniProt Q8NC96),inactive: 0
12,NENF (UniProt Q9UMX5),inactive: 0
13,NARS (UniProt O43776),inactive: 0
14,NAT13 (UniProt Q9GZZ1),inactive: 0
15,NPEPL1 (UniProt Q8NDH3),inactive: 0
16,NAGPA (UniProt Q9UK23),inactive: 0
17,NUFIP2 (UniProt Q7Z417),inactive: 0
18,NANS (UniProt Q9NR45),inactive: 0
19,NCOA6 (UniProt Q14686),inactive: 0
20,NONO (UniProt Q15233),inactive: 0

# In another format: entries from further up
row	Target	dose-dependent thermal stabilisation call
17	NUFIP2 (UniProt Q7Z417)	inactive: 0
18	NANS (UniProt Q9NR45)	inactive: 0

# (cont.)

row,Target,dose-dependent thermal stabilisation call
1,NUP160 (UniProt Q12769),inactive: 0
2,NOC3L (UniProt Q8WTT2),inactive: 0
3,NFKB2 (UniProt Q00653),inactive: 0
4,NDUFB7 (UniProt P17568),inactive: 0
5,NSUN4 (UniProt Q96CB9),inactive: 0
6,NOTCH2 (UniProt Q04721),inactive: 0
7,NKTR (UniProt P30414),inactive: 0
8,NPC2 (UniProt P61916),inactive: 0
9,NPM1 (UniProt P06748),inactive: 0
10,NUDT19 (UniProt A8MXV4),inactive: 0
11,NDUFA11 (UniProt Q86Y39),inactive: 0
12,NME7 (UniProt Q9Y5B8),inactive: 0
13,NUDT15 (UniProt Q9NV35),inactive: 0
14,NFKB1 (UniProt P19838),inactive: 0
15,NUDT2 (UniProt P50583),inactive: 0
16,NLRC4 (UniProt Q9NPP4),inactive: 0
17,ND2 (UniProt P03891),inactive: 0
18,NFATC2IP (UniProt Q8NCF5),inactive: 0
19,NUDT16 (UniProt Q96DE0),inactive: 0
20,NDUFB11 (UniProt Q9NX14),inactive: 0
